Experimental findings from PMC4741643 are described below.

No constants are given. Whether binding was seen depends on the method and setting. Binding calls can cover weak binding; strength is not graded here. Sequences can lack the tags named with a protein.

The assay has as its target T1, suppressor of MEK null (sMEK1), full-length human, pGilda fusion (human) (UniProt Q6IN85).
T1 sequence: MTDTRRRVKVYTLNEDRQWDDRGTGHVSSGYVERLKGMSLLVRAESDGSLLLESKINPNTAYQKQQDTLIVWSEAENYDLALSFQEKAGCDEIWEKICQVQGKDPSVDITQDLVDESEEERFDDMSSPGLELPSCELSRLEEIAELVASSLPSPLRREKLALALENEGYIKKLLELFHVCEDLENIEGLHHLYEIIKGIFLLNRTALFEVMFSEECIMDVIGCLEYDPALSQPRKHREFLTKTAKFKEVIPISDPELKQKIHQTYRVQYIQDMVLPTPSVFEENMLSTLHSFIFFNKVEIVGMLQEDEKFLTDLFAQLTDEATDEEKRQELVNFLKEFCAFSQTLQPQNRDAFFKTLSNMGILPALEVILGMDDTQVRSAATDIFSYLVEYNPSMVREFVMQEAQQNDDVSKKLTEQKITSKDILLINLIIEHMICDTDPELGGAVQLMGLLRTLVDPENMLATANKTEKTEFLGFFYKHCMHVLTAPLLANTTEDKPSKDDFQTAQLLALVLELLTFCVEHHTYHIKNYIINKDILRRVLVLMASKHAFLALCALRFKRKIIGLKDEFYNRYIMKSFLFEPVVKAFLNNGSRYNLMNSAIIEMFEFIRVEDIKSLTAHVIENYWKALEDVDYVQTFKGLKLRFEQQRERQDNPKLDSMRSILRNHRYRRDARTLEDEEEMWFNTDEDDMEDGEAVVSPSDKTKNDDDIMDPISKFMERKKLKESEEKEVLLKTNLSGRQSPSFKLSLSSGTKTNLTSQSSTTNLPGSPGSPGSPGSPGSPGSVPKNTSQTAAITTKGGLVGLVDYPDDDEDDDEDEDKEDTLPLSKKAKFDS
Briefly: two-hybrid; EGY48 yeast cells; pGilda-sMEK1 as bait, pJG4-5 fusions as prey; growth on medium lacking leucine, blue colonies on X-gal plates with 2% galactose, β-galactosidase activity with ONPG.

For “VEGFR-2 truncated fragment Leu801-Leu1000, pJG4-5 fusion (human) (domain or fragment)”, the binding result is listed as “binds”.
